Experimental data: PubChem BioAssay AID652243 (Drosophila RNAi Screening Center, 2013)
The deposit covers about 24,000 reagents; this is a random part of those with a known target gene and a result. Over the whole deposit, 246 (1%) are marked active. 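Plates not normalised; calls are printed but the firefly/Renilla ratio behind them is not deposited; fold cut for lowering reported inconsistently.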 Raw values are not corrected between plates. Unmarked entries are inactive. Reagents against one gene are numbered here. The record does not give: the amount of reagent.

Aim: 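Fly genes required for human androgen receptor driven transcription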 (primary screen)
Cells: Drosophila S2R+ cells
Reagents: long dsRNA against Drosophila genes
Timing: 72 h (48 h, then 24 h hormone)
Treatment: synthetic androgen R1881 at 10 nM for 24 h
Read-out: 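Per-well raw luminescence of the androgen-driven firefly reporter and of the Renilla control, two replicates each, without normalisation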
Direction: firefly reporter light: higher = more light from androgen-responsive reporter; Renilla control light: higher = more constitutive control signal (cell number, transfection)
Rule for the call: 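Across duplicate plates, a knock-down whose log firefly/Renilla ratio shifted a set fold down or up from the GFP/LacZ control mean was a hit; the downward cut appears as both 1.5 and 3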
Meaning of the calls: active = hit: reporter lowered or raised; inactive = no hit

gene | reagent | firefly reporter light, replicate 1 | firefly reporter light, replicate 2 | Renilla control light, replicate 1 | Renilla control light, replicate 2
CG5377 | 1 | 2.73e5 | 3.65e5 | 3.41e6 | 3.74e6
CG5377 | 2 | 4.17e5 | 4.36e5 | 9.80e5 | 1.35e6
CG32461 | 1 | 2.74e5 | 1.19e5 | 5.62e5 | 3.98e5
CG13148 | 1 | 3.53e5 | 2.13e5 | 1.59e6 | 1.40e6
pav | 1 | 1.17e5 | 1.07e5 | 2.06e6 | 2.05e6
pav | 2 | 5.88e5 | 3.07e5 | 5.44e5 | 5.49e5
CG32679 | 1 | 7.05e5 | 7.93e5 | 1.70e6 | 1.59e6
trx | 1 | 74531 | 49323 | 2.77e5 | 2.66e5
trx | 2 | 4.35e5 | 4.25e5 | 1.08e6 | 1.46e6
pgc | 1 | 3.13e5 | 2.59e5 | 1.39e6 | 1.16e6
CG10853 | 1 | 1.57e5 | 1.67e5 | 2.20e6 | 3.16e6
CG10853 | 2 | 6.27e5 | 5.10e5 | 7.09e5 | 6.87e5
CG10510 | 1 | 23811 | 51524 | 2.97e5 | 3.83e5
TwdlQ | 1 | 9.21e5 | 1.20e6 | 1.41e6 | 1.62e6
TwdlQ | 2 | 2.90e5 | 2.21e5 | 6.41e5 | 6.94e5
Taz | 1 | 4.59e5 | 5.34e5 | 2.71e6 | 2.58e6
Taz | 2 | 8.08e5 | 9.44e5 | 1.88e6 | 2.19e6
Taz | 3 | 3.52e5 | 2.10e5 | 7.45e5 | 3.27e5
Tbcc | 1 | 2.44e5 | 1.32e5 | 6.74e5 | 5.00e5
Tbcc | 2 | 1.08e6 | 1.08e6 | 9.00e5 | 1.17e6
Uros2 | 1 | 1.49e5 | 1.63e5 | 1.78e6 | 1.76e6
Arr2 | 1 | 1.89e5 | 1.71e5 | 1.98e6 | 1.64e6
TfIIB | 1 | 1.89e5 | 1.66e5 | 1.28e6 | 1.19e6
CG17230 | 1 | 90846 | 74076 | 6.25e5 | 5.60e5
CG17230 | 2 | 1.97e5 | 2.28e5 | 4.85e5 | 5.66e5
cyr | 1 | 4.03e5 | 6.18e5 | 2.34e6 | 3.07e6
cyr | 2 | 2.29e5 | 3.53e5 | 2.28e6 | 3.22e6
CG2111 | 1 | 3.98e5 | 4.12e5 | 2.81e6 | 2.62e6
CG2111 | 2 | 2.16e5 | 2.32e5 | 4.09e5 | 6.13e5
Chmp1 | 1 | 37061 | 25543 | 5.34e5 | 2.75e5
Chmp1 | 2 | 8.50e5 | 8.59e5 | 1.15e6 | 1.25e6
Chmp1 | 3 | 5.98e5 | 5.00e5 | 1.74e6 | 1.54e6
tin | 1 | 2.71e5 | 3.09e5 | 2.81e6 | 3.56e6
tin | 2 | 4.03e5 | 3.05e5 | 1.29e6 | 1.18e6
tin | 3 | 4.08e5 | 7.14e5 | 1.11e6 | 1.75e6
GstD1 | 1 | 61624 | 73998 | 1.78e6 | 1.74e6
GstD1 | 2 | 2.07e5 | 2.50e5 | 4.72e5 | 6.81e5
Def | 1 | 4.10e5 | 3.39e5 | 2.24e6 | 1.79e6
CG33233 | 1 | 1.34e5 | 94529 | 9.56e5 | 1.33e6
ninaG | 1 | 1.82e5 | 1.29e5 | 2.02e6 | 1.77e6

Part of the list above, reduced to “Renilla control light, replicate 1”.
CG10853 #2	7.09e5
CG10510	2.97e5
TwdlQ #1	1.41e6
